According to PubChem BioAssay AID504648 (National Center for Advancing Translational Sciences (NCATS), 2011):
Screen size: about 390,000 compounds; about 610 (0.16%) were called active. The inconclusive results got no clear call from the source; some entries with a clear call stand among them for comparison. Calls come from the whole dose curve; as a rule, active = well fitted inhibition curve with a large enough effect; inconclusive = small, poorly fitted or top-dose-only effect, or effect the other way, or another doubt; inactive = no such curve, though single readings can be large or run the other way. Potencies of inconclusive entries are doubtful fits and often do not repeat.
Potency is the fitted concentration of half-maximal effect.

Experiment: Nrf2 qHTS screen for inhibitors: counterscreen for cytotoxicity
Conditions: A549 ARE-Fluc cells, CellTiter-Fluor viability, 18-24 h; series mostly up to 46 µM
Outline: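 Cytotoxicity counterscreen: CellTiter-Fluor fluorescence was measured in A549 ARE_Fluc cells after 18-24 h of compound exposure in a concentration series. The subsequent BugLite luminescent read reports ARE-luciferase activity.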
For `CN1CCS/C1=C/C=C1/SC(=S)N(Cc2ccccc2)C1=O`, the Potency was inconclusive: 16.4 µM [falling, partial curve, poor fit]. In the case of `CCCN1C(C(=O)c2ccccc2)=C(OC(=O)COc2ccc(C)cc2)c2ccccc2S1(=O)=O`, the Potency was inconclusive: 23.1 µM [falling, partial curve]. For `CCOC(=O)c1c(-c2ccc(OC)cc2)csc1NC(=O)CSc1ccccc1`, the Potency was inconclusive: 29.1 µM [activator, partial curve, poor fit]. In the case of `COc1cccc(Nc2nc(CC(C)=O)ns2)c1`, the Potency was “inactive”. With `Cc1ccc(C(=O)N/N=C\c2ccc(OC(=O)c3cccc(F)c3)cc2)cn1` the Potency was inconclusive: 1.3 µM [falling, partial curve, poor fit]. With `Cc1ccc(NC(=O)NCC(c2ccccc2)N(C)C)cc1` (stereo not drawn) the Potency was inconclusive: 2.59 µM [activator, partial curve, poor fit]. With `C#CCOCCOCCOCCNc1nc(N2CCN(C(=O)C(Cc3cc4ccccc4[nH]3)n3cc(C(N)Cc4ccc(O)cc4)nn3)CC2)nc(N2CCN(C(=O)C(Cc3cc4ccccc4[nH]3)n3cc(C(N)Cc4ccc(O)cc4)nn3)CC2)n1` (stereo not drawn) the Potency was inconclusive: 23.1 µM [falling, single point]. With `COc1cc(C(=O)Nc2cc(C)cc(C)c2)c(-n2cnnn2)cc1OC` the Potency was “inactive”. In the case of `CN(C)CCNc1ccc(CO)c2oc3ccc(O)cc3c(=O)c12`, the Potency was inconclusive: 18.4 µM [falling, single point]. For `CC(C)Cn1c(N)c(C(=O)NCCN2CCOCC2)c2nc3ccccc3nc21`, the Potency was inconclusive: 20.6 µM [activator, single point]. For `Clc1ccc(N2N=C(c3cccs3)CC2c2ccco2)cc1` (stereo not drawn), the Potency was inconclusive: 16.4 µM [activator, single point]. With `CC1CCN(S(=O)(=O)c2ccc(-c3nnc(SCc4cccnc4)o3)cc2)CC1` the Potency was inconclusive: 8.2 µM [activator, single point]. With `O=[N+]([O-])c1cccc(-c2nnc(-c3ccccc3F)o2)c1` the Potency was “inactive”. In the case of `Cc1cc(C)c2nc(N3CCCN(C(=O)c4ccco4)CC3)c(C#N)cc2c1`, the Potency was “inactive”. In the case of `Oc1ccc(Br)cc1-c1nc2cnccn2c1NC1CCCCC1`, the Potency was inconclusive: 18.4 µM [activator, partial curve, poor fit]. In the case of `O=C(CCCOc1ccccc1)N1CCN(S(=O)(=O)c2ccccc2)CC1`, the Potency was “inactive”. In the case of `Cc1cc(NC(=O)c2ccc(C#N)cc2)on1`, the Potency was inconclusive: 29.1 µM [falling, single point]. For `CCCCCCOC(=O)C(C#N)c1nc2ccccc2nc1N1CCN(CC)CC1` (stereo not drawn), the Potency was inconclusive: 23.1 µM [falling, single point]. For `COc1ccc(N/N=C(/N=Nc2nc(C)cc(=O)[nH]2)c2ccccc2)cc1`, the Potency was inconclusive: 10.3 µM [falling, partial curve, poor fit]. For `O=C(CSc1nc(N2CCCCC2)nc(N2CCCCC2)n1)N1CCN(c2ccccc2)CC1`, the Potency was inconclusive: 29.1 µM [falling, single point]. With `CCc1nnc(NS(=O)(=O)c2ccc(NCc3cc(Cl)cc(Cl)c3O)cc2)s1` the Potency was inconclusive: 20.6 µM [falling, single point]. For `CN(Cc1ccccc1)c1nc2c(S(=O)(=O)c3cccc(Cl)c3)nnn2c2ccsc12`, the Potency was “inactive”. For `CCCc1cc(C(=O)Nc2ccc(C(=O)c3ccc(C)cc3)cc2)n(C)n1`, the Potency was inconclusive: 16.4 µM [falling, single point]. In the case of `O=C(Nc1ccc(Br)c(C(F)(F)F)c1)c1ccc(C(F)(F)F)cc1`, the Potency was inconclusive: 29.1 µM [falling, single point]. For `COc1cccc(N2CCN(CC(=O)c3c(C)[nH]c4ccccc34)CC2)c1`, the Potency was inconclusive: 29.1 µM [falling, single point]. For `O=C(COc1ccccc1)Nc1cccc(-c2nc3cc4ccccc4cc3[nH]2)c1`, the Potency was inconclusive: 20.6 µM [falling, single point]. For `COC(=O)c1sccc1S(=O)(=O)N1CCN(c2cccc(C)c2)C(C)C1` (stereo not drawn), the Potency was inconclusive: 20.6 µM [activator, partial curve, poor fit]. With `NC(=O)CC(NC(=O)Cc1ccc(Cl)cc1)c1ccc(NC2CC3CCC2C3)c([N+](=O)[O-])c1` (stereo not drawn) the Potency was inconclusive: 29.1 µM [falling, single point]. With `CN1C(=O)c2ccccc2Sc2ccc(NC(=O)Cc3ccc(Cl)cc3)cc21` the Potency was inconclusive: 20.6 µM [falling, partial curve, poor fit]. In the case of `Cc1[nH]c(=O)c(C(=O)c2cc(Cl)ccc2O)cc1C(=O)O`, the Potency was “inactive”. In the case of `Cn1c2ccccc2c(=O)c2cc(C#Cc3ccccn3)ccc21`, the Potency was “inactive”. With `O=C(NCc1ccccc1)C1CCN(c2ncnc3c2nc2n3CCCCC2)CC1` the Potency was “inactive”. For `O=C(Nc1ccccc1OCc1cc(=O)n2ccccc2n1)Nc1ccccc1C(F)(F)F`, the Potency was “inactive”. In the case of `C=CCNC1=C(Cl)C(=O)c2ccccc2C1=O`, the Potency was inconclusive: 16.4 µM [falling, single point]. With `N#C/C(=N\Nc1c(Cl)cccc1Cl)C(=O)NN` the Potency was “inactive”. In the case of `Cc1ccc(-n2nc(C)c3c2C(Br)C(C)(C)CC3=O)nc1` (stereo not drawn), the Potency was “inactive”. In the case of `COc1cccc(NC(=O)CN(C)C(=O)c2ccc3c(c2)S(=O)(=O)N=C2CCCCCN23)c1`, the Potency was “inactive”. In the case of `C=C(C)[C@@H]1C2=CC(C(=O)OC)=C(C[C@@H](C(=C)C)[C@H]3O[C@H]3C3=C[C@H]1OC3=O)O2`, the Potency was “inactive”. In the case of `O=C(Oc1ccc(F)cc1C(=O)/C=C/c1cccs1)c1cccc([N+](=O)[O-])c1`, the Potency was inconclusive: 10.3 µM [falling, partial curve, poor fit]. With `O=C(NNC(=O)c1cccc(Br)c1)Nc1ccc(Cl)cc1` the Potency was “inactive”. For `C[C@H](CO)N1C[C@H](C)[C@@H](CN(C)S(=O)(=O)c2cccs2)Oc2c(NC(=O)C3CC3)cccc2C1=O`, the Potency was “inactive”. For `CCC(=NCCc1c(C)[nH]c2ccc(OC(F)(F)F)cc12)C1=C(O)CC(c2ccccc2)CC1=O` (stereo not drawn), the Potency was inconclusive: 6.51 µM [falling, partial curve]. For `C=CCn1c(O)c(C2=c3ccccc3=NC2=O)sc1=Nc1ccc(O)cc1`, the Potency was inconclusive: 29.1 µM [falling, single point]. With `CC(=O)Nc1ccc(-c2csc(Nc3cc(C)ccn3)n2)cc1` the Potency was inconclusive: 14.6 µM [falling, partial curve, poor fit]. For `CCOc1ccc(OCC)c(NC(=O)c2cnn(-c3ccc(F)cc3)c2-n2cccc2)c1`, the Potency was “inactive”. For `O=C(O)c1ccccc1/C=N/Nc1ccc(S(=O)(=O)N2CCOCC2)cc1[N+](=O)[O-]`, the Potency was inconclusive: 16.4 µM [falling, partial curve, poor fit]. With `O=C1Nc2ccc(Br)cc2/C1=N/N=C/C1=C(N2CCOCC2)C(=C\c2ccccc2)/CC1` the Potency was active: 18.4 µM. With `COCCN(C(=O)c1cccc(N2C(=O)CCC2=O)c1)c1nc(-c2ccc([N+](=O)[O-])cc2)cs1` the Potency was inconclusive: 29.1 µM [falling, partial curve, poor fit]. With `Cc1cccc(-n2c(O)c(C=Nc3ccccc3)c3ccccc3c2=O)n1` the Potency was inconclusive: 20.6 µM [falling, partial curve]. In the case of `COc1ccc(S(=O)(=O)Nc2cccc(-c3ccc(N4CCCCCC4)nn3)c2)cc1OC`, the Potency was inconclusive: 32.6 µM [falling, partial curve, poor fit]. With `N#CC1=C(N)Oc2c(ccc3cccnc23)C1c1ccccc1` (stereo not drawn) the Potency was “inactive”. With `COc1cccc(-c2cc3c(-n4cccc4)ncnc3o2)c1` the Potency was “inactive”. For `CC(C)CCn1c(=O)c2ccccc2n2c(CCl)nnc12`, the Potency was “inactive”. For `COc1ccccc1Nc1nnc(SCC(=O)Nc2nc(-c3ccc(F)cc3)cs2)s1`, the Potency was inconclusive: 16.4 µM [falling, single point]. With `CCn1c2cc(C)sc2c2cnn(Cc3ccccc3F)c(=O)c21` the Potency was inconclusive: 18.4 µM [activator, partial curve, poor fit]. For `Cc1nn(-c2ccccc2)c2nc(C3CC3)cc(C(=O)Nc3cccc(F)c3)c12`, the Potency was inconclusive: 32.6 µM [falling, partial curve, poor fit]. For `Cc1cc(Oc2ccc(N)cn2)ccc1Cl`, the Potency was “inactive”. For `CCOC(=O)C1CCCN(C(=O)c2ccc(S(=O)(=O)Nc3ccccc3OC)cc2)C1` (stereo not drawn), the Potency was “inactive”. With `Cc1c(C(=O)OC2CCC(C)CC2)[nH]c2c1C(=O)CC(c1ccc(F)cc1)C2` (stereo not drawn) the Potency was “inactive”. In the case of `O=C(NCC1OCCc2ccccc21)c1ccc(NC(=O)c2ccccc2Cl)cc1` (stereo not drawn), the Potency was “inactive”. In the case of `CC1=CC2=NC(=O)/C(=C\c3cccn3CCOc3ccccc3)C(=N)N2O1`, the Potency was inconclusive: 29.1 µM [falling, single point]. In the case of `Cc1c(Cc2ccccc2)sc(/N=C/c2ccc3ccccc3c2)c1C(N)=O`, the Potency was inconclusive: 4.11 µM [falling, partial curve, poor fit]. For `COc1cc(/C=C/c2ccc3cccc(OC)c3n2)c(OC(C)=O)c([N+](=O)[O-])c1`, the Potency was active: 9.2 µM. For `CC(C)OC(=O)C1=C(N)N2C(=O)CSC2=C(C(=O)OC(C)C)C1`, the Potency was “inactive”. In the case of `Cc1ccccc1OCC(=O)NCC(=O)OCC(=O)c1ccc2c(c1)CCCC2`, the Potency was “inactive”. In the case of `Cc1ccc(NC(=S)N(CCN2CCOCC2)Cc2cc3cc4c(cc3[nH]c2=O)OCO4)cc1`, the Potency was “inactive”. In the case of `COc1ccc(S(=O)(=O)N2CCCCCC2)cc1C(=O)N(C)CC(=O)Nc1c(Cl)cccc1Cl`, the Potency was inconclusive: 18.4 µM [falling, partial curve, poor fit]. For `CCc1nc2c(c(=O)c3ccccc3n2C)c(=O)n1C1CCCCCC1`, the Potency was inconclusive: 29.1 µM [falling, single point].
